No constants are given. Whether binding was seen depends on the method and setting. In cells and extracts the contact can be indirect. Some entries that bind do so weakly or less than the wild type. Tags and fused reporters may be left off the sequences shown.
Columns and labels:
FOXK2-Flag (Wt) [1] = molecular target: FOXK2-Flag (Wt) (UniProt Q01167); experiment: co-IP; BEAS-2B cells cotransfected with FOXK2-Flag and FBXO24-V5; Flag beads pull down FOXK2-Flag; immunoprecipitants probed for SCF components by immunoblot (n = 3)
FOXK2-Flag (Wt) [2] = molecular target: FOXK2-Flag (Wt) (UniProt Q01167); experiment: co-IP; cells (BEAS-2B by the legend, HEK-293T by the methods) cotransfected for 48 h with FBXO24-V5 and FOXK2-Flag Wt or deletion plasmids; lysis Buffer A (PBS, 0.2% SDS, 0.05% Triton); anti-Flag M2 magnetic beads, RT, 30 min; immunoblot for FBXO24
FOXK2-Flag Δ155–203 = molecular target: T1, FOXK2-Flag Δ155–203 (UniProt Q01167); experiment: as above
T1 sequence: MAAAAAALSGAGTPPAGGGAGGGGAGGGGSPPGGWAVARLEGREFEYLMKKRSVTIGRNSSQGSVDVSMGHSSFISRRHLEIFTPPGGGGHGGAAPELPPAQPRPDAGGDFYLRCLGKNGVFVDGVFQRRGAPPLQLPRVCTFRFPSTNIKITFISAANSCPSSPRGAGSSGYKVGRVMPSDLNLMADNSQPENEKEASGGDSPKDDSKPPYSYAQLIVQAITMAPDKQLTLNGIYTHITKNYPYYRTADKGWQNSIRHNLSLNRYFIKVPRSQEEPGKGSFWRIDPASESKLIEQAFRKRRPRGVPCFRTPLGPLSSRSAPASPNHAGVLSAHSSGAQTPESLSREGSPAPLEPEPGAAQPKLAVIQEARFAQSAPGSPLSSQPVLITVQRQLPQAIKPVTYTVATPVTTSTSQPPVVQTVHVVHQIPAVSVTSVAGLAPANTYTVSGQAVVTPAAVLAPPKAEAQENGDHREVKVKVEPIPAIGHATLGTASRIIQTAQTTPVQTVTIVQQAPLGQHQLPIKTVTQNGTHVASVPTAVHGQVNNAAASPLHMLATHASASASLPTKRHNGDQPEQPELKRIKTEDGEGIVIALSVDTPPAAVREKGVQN

FOXK2-Flag Δ428–478 = molecular target: T2, FOXK2-Flag Δ428–478 (UniProt Q01167); experiment: as above
T2 sequence: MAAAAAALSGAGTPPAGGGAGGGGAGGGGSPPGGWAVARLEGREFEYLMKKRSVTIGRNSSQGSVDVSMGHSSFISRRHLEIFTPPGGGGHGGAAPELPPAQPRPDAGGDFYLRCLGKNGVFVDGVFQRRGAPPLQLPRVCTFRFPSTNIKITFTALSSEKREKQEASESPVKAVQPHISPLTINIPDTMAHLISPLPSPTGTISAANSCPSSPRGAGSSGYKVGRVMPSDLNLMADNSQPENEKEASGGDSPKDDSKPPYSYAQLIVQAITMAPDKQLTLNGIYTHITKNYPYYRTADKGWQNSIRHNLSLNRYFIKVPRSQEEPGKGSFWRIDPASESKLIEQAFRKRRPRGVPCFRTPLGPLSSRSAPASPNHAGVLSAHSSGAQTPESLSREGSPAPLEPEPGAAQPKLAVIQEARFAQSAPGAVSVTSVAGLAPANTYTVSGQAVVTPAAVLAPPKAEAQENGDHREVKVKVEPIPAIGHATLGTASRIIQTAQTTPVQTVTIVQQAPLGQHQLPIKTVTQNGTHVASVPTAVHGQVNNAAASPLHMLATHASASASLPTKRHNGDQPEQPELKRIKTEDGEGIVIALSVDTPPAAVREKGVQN

Measured: binding

B1: FBXO24-V5 (protein, UniProt O75426 1-580)
chain: MGEKAVPLLRRRRVKRSCPSCGSELGVEEKRGKGNPISIQLFPPELVEHIISFLPVRDLVALGQTCRYFHEVCDGEGVWRRICRRLSPRLQDQGSGVRPWKRAAILNYTKGLYFQAFGGRRRCLSKSVAPLLAHGYRRFLPTKDHVFILDYVGTLFFLKNALVSTLGQMQWKRACRYVVLCRGAKDFASDPRCDTVYRKYLYVLATREPQEVVGTTSSRACDCVEVYLQSSGQRVFKMTFHHSMTFKQIVLVGQETQRALLLLTEEGKIYSLVVNETQLDQPRSYTVQLALRKVSHYLPHLRVACMTSNQSSTLYVTDQGGVYFEVHTPGVYRDLFGTLQAFDPLDQQMPLALSLPAKILFCALGYNHLGLVDEFGRIFMQGNNRYGQLGTGDKMDRGEPTQVCYLQRPITLWCGLNHSLVLSQSSEFSKELLGCGCGAGGRLPGWPKGSASFVKLQVKVPLCACALCATRECLYILSSHDIEQHAPYRHLPASRVVGTPEPSLGARAPQDPGGMAQACEEYLSQIHSCQTLQDRTEKMKEIVGWMPLMAAQKDFFWEALDMLQRAEGGGGGVGPPAPET
binds: all assays above
